Some results were stated once for a whole list of compounds, not compound by compound.
Test system: second-stage larva of southern root-knot nematode
Assay: Southern root-knot nematode root knot test on cucumber seedlings (Test Example 2)
Format: in vivo
Settings: 20 ppm solution, 2 ml/plant at bases of cucumber seedlings; root knots counted 7 days after treatment

| Structure (SMILES) | ratio of the number of root knots of the treated group to that of the untreated group |
| --- | --- |
| Cn1c(-c2c(F)cc(F)cc2F)c(-c2cc(F)cc(F)c2Br)cc(Br)c1=O [Compound 817] | ≤ 30 |
| Cn1c(-c2c(F)cc(F)cc2F)c(-c2ccccc2Cl)cc(Br)c1=O [Compound 720] | ≤ 30 |
| Cn1c(-c2c(F)cc(F)cc2F)c(-c2cccc(F)c2Cl)ccc1=O [Compound 491] | ≤ 30 |
| Cn1c(-c2c(F)cc(F)cc2F)c(-c2cccc(F)c2Cl)cc(Cl)c1=O [Compound 500] | ≤ 30 |
| CCn1c(-c2c(F)cc(F)cc2F)c(-c2cccc(F)c2Cl)cc(Cl)c1=O [Compound 488] | ≤ 30 |
| Cn1c(-c2c(F)cc(F)cc2F)c(-c2cc(F)ccc2Cl)cc(Cl)c1=O [Compound 340] | ≤ 30 |
| Cn1c(-c2c(F)cccc2F)c(-c2cccc(F)c2Cl)cc(Br)c1=O [Compound 753] | ≤ 30 |
| CCn1c(-c2c(F)cc(F)cc2F)c(-c2cccc(F)c2Cl)ccc1=O [Compound 486] | ≤ 30 |
| CCn1c(-c2c(F)cc(F)cc2F)c(-c2cccc(F)c2F)cc(Cl)c1=O [Compound 566] | ≤ 30 |
| CCn1c(-c2c(F)cccc2F)c(-c2cc(F)cc(F)c2F)ccc1=O [Compound 438] | ≤ 30 |
| Cn1c(-c2c(F)cccc2F)c(-c2cc(F)cc(F)c2Cl)ccc1=O [Compound 553] | ≤ 30 |
| Cn1c(-c2c(F)cc(F)cc2F)c(-c2ccccc2Cl)cc(Cl)c1=O [Compound 432] | ≤ 30 |
| Cn1c(-c2c(F)cccc2F)c(-c2cc(F)cc(F)c2F)ccc1=O [Compound 439] | ≤ 30 |
| Cn1c(-c2c(F)cc(F)cc2F)c(-c2cc(F)ccc2F)cc(Cl)c1=O [Compound 427] | ≤ 30 |
| CCn1c(-c2c(F)cc(F)cc2F)c(-c2cccc(F)c2Cl)cc(Br)c1=O [Compound 487] | ≤ 30 |
| Cn1c(-c2c(F)cccc2F)c(-c2cc(F)ccc2Cl)cc(Cl)c1=O [Compound 362] | ≤ 30 |
| Cn1c(-c2c(F)cc(F)cc2F)c(-c2ccccc2F)cc(Cl)c1=O [Compound 543] | ≤ 30 |
| Cn1c(-c2c(F)cc(F)cc2F)c(-c2cc(F)cc(F)c2Br)cc(Cl)c1=O [Compound 816] | ≤ 30 |
| Cn1c(-c2c(F)cccc2F)c(-c2cc(F)cc(F)c2Cl)cc(Cl)c1=O [Compound 554] | ≤ 30 |
| Cn1c(-c2c(F)cc(F)cc2F)c(-c2cc(F)cc(F)c2)ccc1=O [Compound 800] | ≤ 30 |
| Cn1c(-c2c(F)cc(F)cc2F)c(-c2cccc(F)c2F)cc(Cl)c1=O [Compound 559] | ≤ 30 |
| Cn1c(-c2c(F)cc(F)cc2F)c(-c2cc(F)cc(F)c2Cl)ccc1=O [Compound 586] | ≤ 30 |

From patent US11234970B2, “Parasitic pest control agents comprising pyridone compounds as active ingredients and methods for using the same” (MITSUI CHEMICALS AGRO, INC., priority 2017, dated 2022)
